# Measurements published in US10092584B2 (Achillion Pharmaceuticals, Inc., priority 2015, dated 2018).
# Amino acid sequences for entries named in this document (tags omitted). Residues count along the entry.
# UniProt P00746, 26-253 limits assumed: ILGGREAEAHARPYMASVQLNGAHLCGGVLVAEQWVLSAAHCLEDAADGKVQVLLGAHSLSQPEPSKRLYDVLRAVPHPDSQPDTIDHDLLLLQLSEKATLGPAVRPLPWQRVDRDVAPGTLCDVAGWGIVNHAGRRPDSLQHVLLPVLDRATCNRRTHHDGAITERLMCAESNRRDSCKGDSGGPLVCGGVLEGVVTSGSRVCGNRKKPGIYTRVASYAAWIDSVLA
# The structures given here were assigned with low confidence; some may be wrong.
# Molecular target: Human Factor D (Homo sapiens, UniProt P00746)
# Assay: Human Factor D assay (Example 8)
# Format: biochemical
# Conditions: Table 1; Human Factor D 80 nM, substrate Z-L-Lys-SBzl
smiles,measurement,value
CC(=O)c1nn(CC(=O)N2C[C@H](F)C[C@H]2C(=O)Nc2cccc(Br)n2)c2c1ccn1cc(-c3cccc(Cl)c3)nc21,IC50,< 1 µM
